PubChem BioAssay AID1224826 | NIAID | 2016
This is a random part of about 17,000 reagents. About 1,110 of them (6.6%) count as active. 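Active means lowered or raised reporter signal; replicate intensities are raw and not normalised per plate.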 Further read-outs or replicates are left out here.

Purpose: 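Genes that change LPS-induced Tnf promoter activity in mouse macrophages when knocked down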 (primary screen)
Cells: RAW264.7 G9 macrophages from mouse bearing reporters for p65 (GFP) and the Tnf promoter (mCherry)
Reagents: siRNA pool against mouse genes, 100 nM
Duration: 16 h of LPS stimulation, after 2 days of siRNA transfection
Challenge: bacterial lipopolysaccharide (Salmonella minnesota R595), 10 ng/ml
Measured: 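Imaged Tnf reporter mCherry in nuclei, minus background, normalised per plate to the median and expressed as robust z-scores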
Direction: Tnf reporter robust z-score: higher = stronger Tnf promoter reporter signal after LPS
Rule for the call: 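a well counts as active at a score of -1.3 or below (Tlr4 knock-down control median) or above 3 (raised signal); controls and wells holding fewer than 50 cells are excluded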
Meaning of the calls: active = Tnf reporter clearly lowered or raised; inactive = no clear change in Tnf reporter

{"Gene": "Or8h9", "Tnf reporter robust z-score": 0.04, "fewer than 50 cells in well": "enough cells in well", "outcome": "inactive"}
{"Gene": "Rnf44", "Tnf reporter robust z-score": -0.34, "fewer than 50 cells in well": "enough cells in well", "outcome": "inactive"}
{"Gene": "Cadm2", "Tnf reporter robust z-score": -0.93, "fewer than 50 cells in well": "enough cells in well", "outcome": "inactive"}
{"Gene": "4632415L05Rik", "Tnf reporter robust z-score": -0.62, "fewer than 50 cells in well": "enough cells in well", "outcome": "inactive"}
{"Gene": "Dhx40", "Tnf reporter robust z-score": -0.12, "fewer than 50 cells in well": "enough cells in well", "outcome": "inactive"}
{"Gene": "Npff", "Tnf reporter robust z-score": -1.92, "fewer than 50 cells in well": "enough cells in well", "outcome": "active"}
{"Gene": "Hyal2", "Tnf reporter robust z-score": -0.14, "fewer than 50 cells in well": "enough cells in well", "outcome": "inactive"}
{"Gene": "Flnb", "Tnf reporter robust z-score": -0.76, "fewer than 50 cells in well": "enough cells in well", "outcome": "inactive"}
{"Gene": "Baat", "Tnf reporter robust z-score": 1.43, "fewer than 50 cells in well": "enough cells in well", "outcome": "inactive"}
{"Gene": "Pitrm1", "Tnf reporter robust z-score": -0.68, "fewer than 50 cells in well": "enough cells in well", "outcome": "inactive"}
{"Gene": "Dusp4", "Tnf reporter robust z-score": 1.09, "fewer than 50 cells in well": "enough cells in well", "outcome": "inactive"}
{"Gene": "C230066G23Rik", "fewer than 50 cells in well": "fewer than 50 cells per well; well left out of calls", "outcome": "inactive"}
{"Gene": "Ndc80", "Tnf reporter robust z-score": -0.34, "fewer than 50 cells in well": "enough cells in well", "outcome": "inactive"}
{"Gene": "Ndp", "Tnf reporter robust z-score": -0.3, "fewer than 50 cells in well": "enough cells in well", "outcome": "inactive"}
{"Gene": "Efcab7", "Tnf reporter robust z-score": -0.37, "fewer than 50 cells in well": "enough cells in well", "outcome": "inactive"}
{"Gene": "Emc4", "Tnf reporter robust z-score": -0.3, "fewer than 50 cells in well": "enough cells in well", "outcome": "inactive"}
{"Gene": "Nlrp5", "Tnf reporter robust z-score": -0.79, "fewer than 50 cells in well": "enough cells in well", "outcome": "inactive"}
{"Gene": "Osm", "Tnf reporter robust z-score": 1.65, "fewer than 50 cells in well": "enough cells in well", "outcome": "inactive"}
{"Gene": "Myl6", "Tnf reporter robust z-score": 1.44, "fewer than 50 cells in well": "enough cells in well", "outcome": "inactive"}
{"Gene": "Knop1", "fewer than 50 cells in well": "fewer than 50 cells per well; well left out of calls", "outcome": "inactive"}
{"Gene": "Cpsf7", "Tnf reporter robust z-score": 0.98, "fewer than 50 cells in well": "enough cells in well", "outcome": "inactive"}
{"Gene": "Gabarapl2", "Tnf reporter robust z-score": -0.75, "fewer than 50 cells in well": "enough cells in well", "outcome": "inactive"}
{"Gene": "Ticrr", "Tnf reporter robust z-score": 0.73, "fewer than 50 cells in well": "enough cells in well", "outcome": "inactive"}
{"Gene": "Gnb4", "Tnf reporter robust z-score": 1.05, "fewer than 50 cells in well": "enough cells in well", "outcome": "inactive"}
{"Gene": "Washc5", "Tnf reporter robust z-score": -0.01, "fewer than 50 cells in well": "enough cells in well", "outcome": "inactive"}
{"Gene": "Cacna1b", "Tnf reporter robust z-score": -0.08, "fewer than 50 cells in well": "enough cells in well", "outcome": "inactive"}
{"Gene": "Niban2", "Tnf reporter robust z-score": 0.45, "fewer than 50 cells in well": "enough cells in well", "outcome": "inactive"}

Laid out differently: 2 of the entries above.
{"Gene":"Dusp4","Tnf reporter robust z-score":1.09,"fewer than 50 cells in well":"enough cells in well","outcome":"inactive"}
{"Gene":"C230066G23Rik","fewer than 50 cells in well":"fewer than 50 cells per well; well left out of calls","outcome":"inactive"}
